From PMC9638919, “DAZL regulates proliferation of human primordial germ cells by direct binding to precursor miRNAs and enhances DICER processing activity”
Results are given in words; binding and its absence hold for the method and conditions named. Binding seen in cells or lysates may run through a third protein. Some binding calls cover weakened binding; strength is not graded here. One block for each molecule: values may come before it.

Protein sequences, listed by entry. Tags and fused reporters are not part of them.
UniProt Q9UPY3: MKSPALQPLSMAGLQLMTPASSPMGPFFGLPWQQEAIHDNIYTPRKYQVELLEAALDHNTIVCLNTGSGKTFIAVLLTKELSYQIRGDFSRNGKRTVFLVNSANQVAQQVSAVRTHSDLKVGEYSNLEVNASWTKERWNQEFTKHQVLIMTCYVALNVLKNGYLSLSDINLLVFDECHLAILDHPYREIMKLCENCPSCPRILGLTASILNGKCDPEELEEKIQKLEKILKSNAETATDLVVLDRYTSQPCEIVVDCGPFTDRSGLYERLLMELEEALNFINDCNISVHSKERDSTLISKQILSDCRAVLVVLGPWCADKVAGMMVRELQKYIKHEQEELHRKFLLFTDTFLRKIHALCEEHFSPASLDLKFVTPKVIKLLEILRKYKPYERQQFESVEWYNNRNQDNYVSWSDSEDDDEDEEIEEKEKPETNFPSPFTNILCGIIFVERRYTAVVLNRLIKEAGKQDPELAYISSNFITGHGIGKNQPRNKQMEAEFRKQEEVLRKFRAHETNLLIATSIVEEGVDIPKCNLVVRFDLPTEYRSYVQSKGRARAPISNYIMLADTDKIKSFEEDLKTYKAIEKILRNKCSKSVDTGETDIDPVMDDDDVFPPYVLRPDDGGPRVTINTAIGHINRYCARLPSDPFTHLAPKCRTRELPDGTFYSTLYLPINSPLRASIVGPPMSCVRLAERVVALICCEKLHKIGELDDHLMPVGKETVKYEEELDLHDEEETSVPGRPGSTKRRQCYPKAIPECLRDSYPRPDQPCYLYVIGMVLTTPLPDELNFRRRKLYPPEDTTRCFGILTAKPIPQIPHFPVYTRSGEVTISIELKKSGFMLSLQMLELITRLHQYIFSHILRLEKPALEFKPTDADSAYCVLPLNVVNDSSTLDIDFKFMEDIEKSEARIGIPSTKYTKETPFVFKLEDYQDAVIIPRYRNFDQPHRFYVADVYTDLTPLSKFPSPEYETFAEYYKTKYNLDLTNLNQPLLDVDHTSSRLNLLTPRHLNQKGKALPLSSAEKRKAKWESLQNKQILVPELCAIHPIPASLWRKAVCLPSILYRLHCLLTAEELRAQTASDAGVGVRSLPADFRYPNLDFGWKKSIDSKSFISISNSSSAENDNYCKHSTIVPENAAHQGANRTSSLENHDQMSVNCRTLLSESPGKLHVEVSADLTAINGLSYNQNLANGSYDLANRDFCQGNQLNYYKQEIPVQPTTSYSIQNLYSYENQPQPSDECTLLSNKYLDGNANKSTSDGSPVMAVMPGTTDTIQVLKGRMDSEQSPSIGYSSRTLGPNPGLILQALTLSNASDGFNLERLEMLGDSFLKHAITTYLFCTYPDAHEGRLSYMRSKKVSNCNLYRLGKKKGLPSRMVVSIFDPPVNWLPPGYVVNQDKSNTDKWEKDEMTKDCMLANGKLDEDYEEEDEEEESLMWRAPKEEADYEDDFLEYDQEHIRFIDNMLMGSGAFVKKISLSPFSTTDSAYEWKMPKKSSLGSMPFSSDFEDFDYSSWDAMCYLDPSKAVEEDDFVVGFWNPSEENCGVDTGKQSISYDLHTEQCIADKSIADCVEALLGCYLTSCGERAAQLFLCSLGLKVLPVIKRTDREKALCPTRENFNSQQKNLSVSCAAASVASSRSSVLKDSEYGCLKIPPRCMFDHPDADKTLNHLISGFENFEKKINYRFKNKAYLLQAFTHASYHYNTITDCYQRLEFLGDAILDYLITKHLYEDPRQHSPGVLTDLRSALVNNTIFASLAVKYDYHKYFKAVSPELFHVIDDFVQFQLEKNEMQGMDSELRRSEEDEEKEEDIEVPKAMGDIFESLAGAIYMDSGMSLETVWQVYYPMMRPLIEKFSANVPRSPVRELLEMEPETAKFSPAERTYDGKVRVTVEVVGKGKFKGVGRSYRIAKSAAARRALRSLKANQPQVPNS

Tests used:
[1] = target: T1, DAZL (overexpressed in 293FT cells) (human) (UniProt Q92904); assay: co-IP; whole-cell lysates of 293FT cells transfected with oeDAZL plasmid; extract treated with 80 ug/ml RNase A and 200 U/ml RNase T1 for 15 min at 37°C before IP; IP with DICER antibodies or DAZL antibodies, Dynabeads Protein G, 4°C; washed with PBS and 0.02% Tween-20; western blotting; normal rabbit IgG as negative control
T1 sequence: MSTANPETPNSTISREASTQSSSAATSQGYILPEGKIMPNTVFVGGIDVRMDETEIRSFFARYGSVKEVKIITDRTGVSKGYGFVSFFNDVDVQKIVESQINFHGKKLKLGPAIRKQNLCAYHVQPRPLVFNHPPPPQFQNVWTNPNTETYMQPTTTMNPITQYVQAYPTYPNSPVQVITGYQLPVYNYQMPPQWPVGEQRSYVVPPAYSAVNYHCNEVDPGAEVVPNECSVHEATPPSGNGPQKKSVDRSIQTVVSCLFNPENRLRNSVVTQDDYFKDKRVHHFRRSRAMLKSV

[2] = target: DICER (endogenous in 293FT cells) (human (endogenous in 293FT)) (UniProt Q9UPY3); assay: as above

binding [1]: binds
Molecule: DICER (endogenous in 293FT cells) (from UniProt Q9UPY3 1-1922) (enzyme)

binding [2]: binds
B1: DAZL (overexpressed in 293FT cells) (protein, UniProt Q92904 1-295)
chain: T1 sequence
